Results reported in the supplement of paper PMC12819154, “High-throughput peptide-centric local stability assay extends protein–ligand identification to membrane proteins, tissues and bacteria” (Nature Structural & Molecular Biology, 2025).
The other results are listed elsewhere or left out. Most values lie at the level of the controls, where differences are scatter.

Sequences of proteins named here, by UniProt entry; tags and fusion partners are left off. A change or cut given only in a name is not applied to a line headed by its entry.
UniProt O88487, whole entry: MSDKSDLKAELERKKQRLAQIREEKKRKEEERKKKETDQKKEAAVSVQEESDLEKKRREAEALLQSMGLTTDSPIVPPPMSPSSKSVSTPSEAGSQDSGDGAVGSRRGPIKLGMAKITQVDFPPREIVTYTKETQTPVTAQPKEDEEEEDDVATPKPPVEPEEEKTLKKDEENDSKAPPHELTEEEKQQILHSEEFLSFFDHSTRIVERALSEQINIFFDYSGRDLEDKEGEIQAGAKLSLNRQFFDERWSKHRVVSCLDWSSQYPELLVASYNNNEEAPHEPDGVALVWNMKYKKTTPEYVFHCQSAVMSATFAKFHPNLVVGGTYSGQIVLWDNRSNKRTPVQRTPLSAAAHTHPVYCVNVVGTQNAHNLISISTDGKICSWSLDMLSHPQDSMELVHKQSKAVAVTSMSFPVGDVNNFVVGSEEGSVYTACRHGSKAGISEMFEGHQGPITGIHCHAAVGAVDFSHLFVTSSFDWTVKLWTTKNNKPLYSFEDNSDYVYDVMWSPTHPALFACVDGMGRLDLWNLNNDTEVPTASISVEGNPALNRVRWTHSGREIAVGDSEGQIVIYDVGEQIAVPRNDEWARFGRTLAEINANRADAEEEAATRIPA
UniProt O88447: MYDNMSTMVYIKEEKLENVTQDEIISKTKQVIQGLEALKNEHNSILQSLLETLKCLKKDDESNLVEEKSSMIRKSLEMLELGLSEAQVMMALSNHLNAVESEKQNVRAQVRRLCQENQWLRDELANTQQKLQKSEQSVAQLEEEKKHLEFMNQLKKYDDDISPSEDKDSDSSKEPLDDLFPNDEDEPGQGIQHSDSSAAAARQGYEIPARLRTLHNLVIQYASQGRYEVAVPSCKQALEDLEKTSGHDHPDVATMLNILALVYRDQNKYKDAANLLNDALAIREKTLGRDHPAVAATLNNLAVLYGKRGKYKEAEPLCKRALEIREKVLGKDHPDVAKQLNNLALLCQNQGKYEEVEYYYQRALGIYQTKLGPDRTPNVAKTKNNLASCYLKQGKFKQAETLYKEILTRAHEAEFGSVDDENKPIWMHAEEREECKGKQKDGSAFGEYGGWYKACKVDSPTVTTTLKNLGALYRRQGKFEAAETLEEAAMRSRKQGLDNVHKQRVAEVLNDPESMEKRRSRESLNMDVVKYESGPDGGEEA
UniProt O88796: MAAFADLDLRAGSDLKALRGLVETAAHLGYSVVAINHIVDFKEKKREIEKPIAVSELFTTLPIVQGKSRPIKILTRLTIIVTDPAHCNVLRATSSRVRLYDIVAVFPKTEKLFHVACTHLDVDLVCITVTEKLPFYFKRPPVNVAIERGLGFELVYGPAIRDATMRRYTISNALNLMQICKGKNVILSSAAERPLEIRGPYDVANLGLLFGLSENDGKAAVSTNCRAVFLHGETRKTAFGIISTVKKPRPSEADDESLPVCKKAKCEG
UniProt G5E829: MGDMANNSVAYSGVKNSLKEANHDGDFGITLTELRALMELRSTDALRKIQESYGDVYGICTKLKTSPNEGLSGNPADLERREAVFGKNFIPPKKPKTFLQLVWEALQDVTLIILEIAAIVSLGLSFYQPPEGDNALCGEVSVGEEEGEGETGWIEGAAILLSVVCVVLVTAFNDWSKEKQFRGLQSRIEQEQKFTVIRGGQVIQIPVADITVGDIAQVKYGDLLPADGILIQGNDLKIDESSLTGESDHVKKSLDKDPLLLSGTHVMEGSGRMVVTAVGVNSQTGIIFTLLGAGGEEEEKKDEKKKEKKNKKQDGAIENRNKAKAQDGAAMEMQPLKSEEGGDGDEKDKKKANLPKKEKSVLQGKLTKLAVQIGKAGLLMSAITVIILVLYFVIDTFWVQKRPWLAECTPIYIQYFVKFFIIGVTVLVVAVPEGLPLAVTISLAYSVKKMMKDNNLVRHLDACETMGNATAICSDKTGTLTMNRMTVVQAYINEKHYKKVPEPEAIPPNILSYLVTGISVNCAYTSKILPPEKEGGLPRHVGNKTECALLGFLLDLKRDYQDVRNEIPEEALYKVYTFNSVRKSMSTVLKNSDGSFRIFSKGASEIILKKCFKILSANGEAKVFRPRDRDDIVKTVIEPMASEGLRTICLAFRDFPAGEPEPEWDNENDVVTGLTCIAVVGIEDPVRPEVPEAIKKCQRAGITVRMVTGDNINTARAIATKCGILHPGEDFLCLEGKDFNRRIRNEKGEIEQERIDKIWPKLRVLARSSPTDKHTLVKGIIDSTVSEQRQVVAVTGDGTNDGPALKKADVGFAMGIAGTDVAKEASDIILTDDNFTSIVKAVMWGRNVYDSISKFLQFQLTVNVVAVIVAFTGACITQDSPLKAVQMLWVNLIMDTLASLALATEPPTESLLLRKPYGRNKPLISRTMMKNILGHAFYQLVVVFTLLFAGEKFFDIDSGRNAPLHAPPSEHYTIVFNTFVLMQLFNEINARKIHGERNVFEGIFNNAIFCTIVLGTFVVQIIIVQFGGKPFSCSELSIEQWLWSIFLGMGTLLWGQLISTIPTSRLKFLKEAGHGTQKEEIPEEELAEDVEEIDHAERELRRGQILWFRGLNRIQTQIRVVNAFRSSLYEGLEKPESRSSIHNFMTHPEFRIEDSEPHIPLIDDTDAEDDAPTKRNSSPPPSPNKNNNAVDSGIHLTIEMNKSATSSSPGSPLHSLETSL
UniProt P01027, whole entry: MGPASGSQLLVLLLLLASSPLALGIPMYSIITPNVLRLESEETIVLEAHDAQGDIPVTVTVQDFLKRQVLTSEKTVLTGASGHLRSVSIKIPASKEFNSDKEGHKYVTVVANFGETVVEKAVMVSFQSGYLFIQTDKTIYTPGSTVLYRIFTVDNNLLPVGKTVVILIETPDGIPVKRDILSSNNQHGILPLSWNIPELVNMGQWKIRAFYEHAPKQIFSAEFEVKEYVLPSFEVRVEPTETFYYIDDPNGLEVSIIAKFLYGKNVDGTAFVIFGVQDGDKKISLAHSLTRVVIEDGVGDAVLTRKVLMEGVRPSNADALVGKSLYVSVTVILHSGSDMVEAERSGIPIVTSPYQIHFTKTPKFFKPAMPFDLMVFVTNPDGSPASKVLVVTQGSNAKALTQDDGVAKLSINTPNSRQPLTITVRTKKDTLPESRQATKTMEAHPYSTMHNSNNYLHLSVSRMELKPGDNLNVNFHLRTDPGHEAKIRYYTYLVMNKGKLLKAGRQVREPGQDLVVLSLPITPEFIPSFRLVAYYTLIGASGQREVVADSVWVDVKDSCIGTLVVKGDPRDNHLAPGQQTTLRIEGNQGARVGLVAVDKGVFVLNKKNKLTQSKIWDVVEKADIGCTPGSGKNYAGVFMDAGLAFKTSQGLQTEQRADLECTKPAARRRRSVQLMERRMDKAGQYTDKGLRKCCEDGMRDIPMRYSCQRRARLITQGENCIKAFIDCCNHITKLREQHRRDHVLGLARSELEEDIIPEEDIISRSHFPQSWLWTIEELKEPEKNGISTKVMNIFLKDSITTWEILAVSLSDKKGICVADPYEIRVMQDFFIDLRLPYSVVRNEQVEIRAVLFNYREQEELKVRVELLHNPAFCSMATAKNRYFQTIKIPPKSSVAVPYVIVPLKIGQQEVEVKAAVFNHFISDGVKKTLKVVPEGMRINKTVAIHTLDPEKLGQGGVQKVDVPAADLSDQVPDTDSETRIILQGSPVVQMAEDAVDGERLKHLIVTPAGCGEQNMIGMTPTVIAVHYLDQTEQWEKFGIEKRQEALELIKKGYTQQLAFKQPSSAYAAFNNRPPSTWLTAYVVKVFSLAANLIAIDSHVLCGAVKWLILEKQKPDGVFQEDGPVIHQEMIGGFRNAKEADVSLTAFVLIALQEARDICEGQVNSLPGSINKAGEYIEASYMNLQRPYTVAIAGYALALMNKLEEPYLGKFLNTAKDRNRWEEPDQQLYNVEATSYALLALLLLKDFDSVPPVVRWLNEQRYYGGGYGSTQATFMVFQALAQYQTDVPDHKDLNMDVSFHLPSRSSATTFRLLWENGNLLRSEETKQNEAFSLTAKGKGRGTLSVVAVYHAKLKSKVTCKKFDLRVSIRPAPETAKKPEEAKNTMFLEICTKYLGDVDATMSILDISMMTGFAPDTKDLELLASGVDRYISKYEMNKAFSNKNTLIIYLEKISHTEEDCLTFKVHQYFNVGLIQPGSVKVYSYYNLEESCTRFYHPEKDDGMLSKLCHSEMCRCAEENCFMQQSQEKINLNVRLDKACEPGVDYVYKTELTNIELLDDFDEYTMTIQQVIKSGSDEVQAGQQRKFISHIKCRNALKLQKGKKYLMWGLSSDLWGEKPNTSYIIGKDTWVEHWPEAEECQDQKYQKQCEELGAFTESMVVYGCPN
UniProt P01635, whole entry: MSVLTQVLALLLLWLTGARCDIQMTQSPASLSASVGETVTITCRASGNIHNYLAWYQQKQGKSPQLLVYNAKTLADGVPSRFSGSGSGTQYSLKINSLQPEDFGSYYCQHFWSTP
UniProt O09158: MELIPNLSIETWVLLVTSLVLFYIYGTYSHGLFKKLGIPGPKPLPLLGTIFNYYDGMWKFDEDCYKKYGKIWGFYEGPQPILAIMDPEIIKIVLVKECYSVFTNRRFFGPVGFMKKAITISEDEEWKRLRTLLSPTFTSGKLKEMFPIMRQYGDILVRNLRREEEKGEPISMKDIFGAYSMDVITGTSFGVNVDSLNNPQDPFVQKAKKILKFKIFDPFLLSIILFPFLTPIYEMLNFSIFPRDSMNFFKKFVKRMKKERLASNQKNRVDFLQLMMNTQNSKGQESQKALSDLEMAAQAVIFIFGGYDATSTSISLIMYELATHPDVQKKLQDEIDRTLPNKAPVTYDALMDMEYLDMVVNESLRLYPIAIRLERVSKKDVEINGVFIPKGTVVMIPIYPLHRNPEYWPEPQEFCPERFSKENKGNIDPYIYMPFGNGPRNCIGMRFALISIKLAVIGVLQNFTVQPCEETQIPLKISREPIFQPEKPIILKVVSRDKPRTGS
UniProt O70423: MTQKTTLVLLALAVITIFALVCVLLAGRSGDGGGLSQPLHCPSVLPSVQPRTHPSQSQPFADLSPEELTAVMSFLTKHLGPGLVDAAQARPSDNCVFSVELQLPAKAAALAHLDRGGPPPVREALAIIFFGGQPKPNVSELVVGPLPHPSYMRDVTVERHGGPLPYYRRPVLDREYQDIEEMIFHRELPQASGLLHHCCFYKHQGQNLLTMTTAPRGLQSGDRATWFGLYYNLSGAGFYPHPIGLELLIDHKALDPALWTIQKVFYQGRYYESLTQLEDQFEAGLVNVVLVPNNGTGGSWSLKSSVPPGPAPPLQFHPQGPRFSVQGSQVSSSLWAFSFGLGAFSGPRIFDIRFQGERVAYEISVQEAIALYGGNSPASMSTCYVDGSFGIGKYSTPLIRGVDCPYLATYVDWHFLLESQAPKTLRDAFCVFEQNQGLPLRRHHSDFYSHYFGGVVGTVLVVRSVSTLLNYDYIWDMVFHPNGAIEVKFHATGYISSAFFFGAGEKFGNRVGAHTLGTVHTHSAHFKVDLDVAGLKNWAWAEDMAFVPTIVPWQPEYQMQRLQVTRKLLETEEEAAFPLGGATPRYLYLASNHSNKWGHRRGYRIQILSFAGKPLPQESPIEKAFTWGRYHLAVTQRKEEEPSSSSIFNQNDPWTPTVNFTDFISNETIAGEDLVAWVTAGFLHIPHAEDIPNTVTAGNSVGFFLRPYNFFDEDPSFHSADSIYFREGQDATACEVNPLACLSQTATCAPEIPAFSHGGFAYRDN
UniProt O88822: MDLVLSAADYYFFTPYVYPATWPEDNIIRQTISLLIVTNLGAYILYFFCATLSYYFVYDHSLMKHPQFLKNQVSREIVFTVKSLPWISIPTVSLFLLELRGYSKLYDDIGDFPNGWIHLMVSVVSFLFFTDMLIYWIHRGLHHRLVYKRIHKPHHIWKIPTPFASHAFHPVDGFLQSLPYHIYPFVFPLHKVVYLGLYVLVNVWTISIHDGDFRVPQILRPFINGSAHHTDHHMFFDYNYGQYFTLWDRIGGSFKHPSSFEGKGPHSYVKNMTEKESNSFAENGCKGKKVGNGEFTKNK
UniProt O70311: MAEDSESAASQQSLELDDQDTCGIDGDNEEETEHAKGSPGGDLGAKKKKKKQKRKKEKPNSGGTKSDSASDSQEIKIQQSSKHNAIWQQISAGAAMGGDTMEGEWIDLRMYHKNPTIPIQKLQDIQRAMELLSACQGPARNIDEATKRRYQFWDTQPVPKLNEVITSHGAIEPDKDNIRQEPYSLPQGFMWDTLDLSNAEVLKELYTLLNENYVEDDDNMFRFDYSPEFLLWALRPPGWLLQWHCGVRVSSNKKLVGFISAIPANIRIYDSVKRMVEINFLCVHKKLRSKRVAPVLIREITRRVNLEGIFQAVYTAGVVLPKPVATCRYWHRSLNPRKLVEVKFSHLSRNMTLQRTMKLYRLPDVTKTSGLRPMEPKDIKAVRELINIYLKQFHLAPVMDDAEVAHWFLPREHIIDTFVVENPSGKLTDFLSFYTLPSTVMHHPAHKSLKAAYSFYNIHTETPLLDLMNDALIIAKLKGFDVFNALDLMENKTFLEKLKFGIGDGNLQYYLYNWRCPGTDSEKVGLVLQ

compound: CN[C@@H]1C[C@H]2O[C@@](C)([C@@H]1OC)n1c3ccccc3c3c4c(c5c6ccccc6n2c5c31)C(=O)NC4 [staurosporine]; experiment: log2 fold change of pooled soluble protein (PISA), ligand vs vehicle (log2 ratio); higher = more thermally stabilized; conditions: ligand concentration: 20 uM; assay format: PISA pool 52.9/55.5/58.6 C

Target	log2 fold change of pooled soluble protein
UniProt O55135	-0.0651
UniProt O70152	-0.132
UniProt O88487	-0.0111
UniProt O70310	0.157
UniProt O88447	0.373
UniProt O88783	-0.171
UniProt O09110	1.01
UniProt O35126	0.0534
UniProt O08807	-0.361
UniProt O55229	-0.05
UniProt O88322	-0.0907
UniProt O88796	0.192
UniProt O88811	0.0578
UniProt O08601	0.035
UniProt O35286	-0.00883
UniProt G5E829	-0.0509
UniProt P01027	-0.0264
UniProt P01635	0.0605

An excerpt of these results, with bars between the fields.
Target | log2 fold change of pooled soluble protein
UniProt O09110 | 1.01
UniProt O35126 | 0.0534
UniProt O08807 | -0.361

(list continues)

Target	log2 fold change of pooled soluble protein
UniProt O35598	-0.218
UniProt O09158	0.0335
UniProt O70423	0.421
UniProt O55222	0.254
UniProt O88833	0.00106
UniProt O35166	0.982
P01754;P06328	0.165
UniProt O35403	0.017
UniProt O35643	0.0274
UniProt O88425	0.0231
UniProt O54946	0.204
UniProt O88822	-0.0981
UniProt P01786	0.0707
UniProt O54749	0.0308
UniProt O54786	-0.0316
UniProt O35728	-0.0734
UniProt O88286	-0.325
UniProt O70311	-0.031
